In the supplement of paper PMC10849652:
The other results are listed elsewhere or left out.

The chains behind the UniProt entries cited, without tags or fusion partners. Where a name states a change or a piece, a line headed by the entry shows the natural chain unless it says otherwise.
UniProt Q8NB49: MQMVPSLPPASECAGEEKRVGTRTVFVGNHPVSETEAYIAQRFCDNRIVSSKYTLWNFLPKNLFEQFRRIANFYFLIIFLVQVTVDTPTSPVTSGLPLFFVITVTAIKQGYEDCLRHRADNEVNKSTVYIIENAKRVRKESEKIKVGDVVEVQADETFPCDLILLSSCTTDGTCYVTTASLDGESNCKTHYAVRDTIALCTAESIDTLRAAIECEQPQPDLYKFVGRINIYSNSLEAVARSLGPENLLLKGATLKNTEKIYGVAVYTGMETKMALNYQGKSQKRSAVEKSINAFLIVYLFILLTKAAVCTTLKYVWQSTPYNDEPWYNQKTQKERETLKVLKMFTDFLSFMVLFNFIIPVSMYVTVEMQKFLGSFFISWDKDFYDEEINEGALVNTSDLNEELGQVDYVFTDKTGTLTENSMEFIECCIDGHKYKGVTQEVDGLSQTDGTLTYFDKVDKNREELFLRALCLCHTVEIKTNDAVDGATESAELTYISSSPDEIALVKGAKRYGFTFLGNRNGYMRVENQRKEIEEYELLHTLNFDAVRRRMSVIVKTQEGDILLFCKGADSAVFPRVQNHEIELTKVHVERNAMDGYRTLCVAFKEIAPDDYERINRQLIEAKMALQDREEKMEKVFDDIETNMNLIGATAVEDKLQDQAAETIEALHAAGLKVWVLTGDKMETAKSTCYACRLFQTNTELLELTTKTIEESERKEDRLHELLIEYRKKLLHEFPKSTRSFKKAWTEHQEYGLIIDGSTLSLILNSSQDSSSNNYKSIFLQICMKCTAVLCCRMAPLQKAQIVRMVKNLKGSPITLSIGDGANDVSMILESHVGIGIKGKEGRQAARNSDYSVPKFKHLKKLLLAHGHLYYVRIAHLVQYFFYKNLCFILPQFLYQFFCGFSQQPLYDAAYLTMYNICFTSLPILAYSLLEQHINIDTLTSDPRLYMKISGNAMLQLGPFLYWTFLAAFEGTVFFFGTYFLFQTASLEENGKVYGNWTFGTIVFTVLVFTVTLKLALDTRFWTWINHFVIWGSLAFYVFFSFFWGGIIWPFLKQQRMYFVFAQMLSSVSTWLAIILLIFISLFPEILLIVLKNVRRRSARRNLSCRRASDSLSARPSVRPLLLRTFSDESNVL
UniProt P98196: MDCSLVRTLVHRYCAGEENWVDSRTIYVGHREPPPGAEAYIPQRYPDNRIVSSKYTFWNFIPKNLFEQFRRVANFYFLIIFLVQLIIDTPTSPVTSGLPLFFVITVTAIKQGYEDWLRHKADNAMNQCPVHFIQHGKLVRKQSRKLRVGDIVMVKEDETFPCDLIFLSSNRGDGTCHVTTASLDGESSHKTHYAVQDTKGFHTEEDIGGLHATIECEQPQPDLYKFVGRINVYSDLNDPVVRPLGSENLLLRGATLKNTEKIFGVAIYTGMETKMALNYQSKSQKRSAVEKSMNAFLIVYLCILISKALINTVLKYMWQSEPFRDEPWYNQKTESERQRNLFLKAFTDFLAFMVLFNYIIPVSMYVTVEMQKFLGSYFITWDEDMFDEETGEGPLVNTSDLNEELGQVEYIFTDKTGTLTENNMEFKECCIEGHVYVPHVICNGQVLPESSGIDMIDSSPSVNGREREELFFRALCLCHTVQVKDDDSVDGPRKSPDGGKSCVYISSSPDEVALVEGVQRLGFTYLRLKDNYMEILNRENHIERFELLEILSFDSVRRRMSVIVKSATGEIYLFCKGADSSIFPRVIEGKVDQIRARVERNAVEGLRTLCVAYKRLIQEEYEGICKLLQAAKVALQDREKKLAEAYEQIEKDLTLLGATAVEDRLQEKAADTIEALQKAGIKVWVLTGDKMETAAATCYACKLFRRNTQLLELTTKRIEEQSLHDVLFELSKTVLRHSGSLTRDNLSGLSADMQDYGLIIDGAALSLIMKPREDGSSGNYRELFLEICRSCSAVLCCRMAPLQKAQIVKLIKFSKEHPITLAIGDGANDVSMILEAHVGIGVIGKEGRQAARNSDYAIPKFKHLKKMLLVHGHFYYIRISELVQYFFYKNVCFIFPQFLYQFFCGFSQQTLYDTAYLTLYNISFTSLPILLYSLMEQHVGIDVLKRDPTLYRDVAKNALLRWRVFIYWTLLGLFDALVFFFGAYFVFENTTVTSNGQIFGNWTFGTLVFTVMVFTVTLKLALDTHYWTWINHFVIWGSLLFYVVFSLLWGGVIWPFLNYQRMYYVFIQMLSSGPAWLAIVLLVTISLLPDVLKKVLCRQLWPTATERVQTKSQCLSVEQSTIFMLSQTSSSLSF
UniProt L0R819, whole entry, looked up: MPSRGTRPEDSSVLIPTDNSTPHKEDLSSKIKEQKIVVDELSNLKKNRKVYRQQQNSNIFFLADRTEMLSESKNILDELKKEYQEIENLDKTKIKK
UniProt O75348, whole entry, looked up: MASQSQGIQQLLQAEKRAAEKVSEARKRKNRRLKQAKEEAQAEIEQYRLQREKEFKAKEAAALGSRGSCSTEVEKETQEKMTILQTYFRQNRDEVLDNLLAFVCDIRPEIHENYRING
UniProt P35670: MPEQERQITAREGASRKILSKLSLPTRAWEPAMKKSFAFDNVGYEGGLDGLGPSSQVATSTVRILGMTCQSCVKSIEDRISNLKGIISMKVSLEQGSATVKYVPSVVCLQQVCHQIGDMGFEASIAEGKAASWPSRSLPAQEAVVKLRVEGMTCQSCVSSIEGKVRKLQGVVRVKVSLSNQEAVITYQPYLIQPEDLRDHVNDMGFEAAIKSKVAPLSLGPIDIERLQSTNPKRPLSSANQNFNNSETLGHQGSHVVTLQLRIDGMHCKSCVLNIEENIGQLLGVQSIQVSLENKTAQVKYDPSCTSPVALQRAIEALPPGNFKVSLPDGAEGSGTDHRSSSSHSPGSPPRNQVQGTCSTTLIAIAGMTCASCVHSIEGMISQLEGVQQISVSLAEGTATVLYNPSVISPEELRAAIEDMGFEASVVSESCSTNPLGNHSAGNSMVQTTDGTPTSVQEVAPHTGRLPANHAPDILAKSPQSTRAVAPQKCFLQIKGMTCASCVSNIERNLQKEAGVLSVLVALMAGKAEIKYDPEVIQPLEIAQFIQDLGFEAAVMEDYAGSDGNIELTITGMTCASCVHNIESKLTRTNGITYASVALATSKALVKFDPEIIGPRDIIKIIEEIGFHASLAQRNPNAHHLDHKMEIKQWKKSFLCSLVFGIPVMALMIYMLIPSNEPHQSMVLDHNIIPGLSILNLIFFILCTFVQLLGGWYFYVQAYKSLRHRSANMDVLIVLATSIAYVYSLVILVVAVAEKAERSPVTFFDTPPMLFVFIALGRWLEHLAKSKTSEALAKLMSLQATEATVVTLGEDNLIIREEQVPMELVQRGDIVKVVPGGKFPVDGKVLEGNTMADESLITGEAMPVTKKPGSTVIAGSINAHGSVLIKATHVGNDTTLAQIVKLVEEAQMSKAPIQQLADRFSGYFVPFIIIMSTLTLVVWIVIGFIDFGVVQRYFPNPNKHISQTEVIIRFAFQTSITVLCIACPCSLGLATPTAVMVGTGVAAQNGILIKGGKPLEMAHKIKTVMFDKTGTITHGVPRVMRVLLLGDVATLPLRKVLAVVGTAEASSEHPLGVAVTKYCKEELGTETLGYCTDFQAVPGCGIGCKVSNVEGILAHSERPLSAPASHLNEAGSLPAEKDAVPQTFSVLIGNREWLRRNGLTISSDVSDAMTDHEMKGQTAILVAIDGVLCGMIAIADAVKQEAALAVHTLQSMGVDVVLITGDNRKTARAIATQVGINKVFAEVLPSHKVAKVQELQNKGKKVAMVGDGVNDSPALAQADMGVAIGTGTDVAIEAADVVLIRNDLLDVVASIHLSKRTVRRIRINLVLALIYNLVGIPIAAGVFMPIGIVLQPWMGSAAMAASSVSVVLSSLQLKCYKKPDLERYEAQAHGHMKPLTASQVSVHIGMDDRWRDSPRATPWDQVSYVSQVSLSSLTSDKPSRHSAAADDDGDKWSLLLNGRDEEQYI
UniProt Q12797: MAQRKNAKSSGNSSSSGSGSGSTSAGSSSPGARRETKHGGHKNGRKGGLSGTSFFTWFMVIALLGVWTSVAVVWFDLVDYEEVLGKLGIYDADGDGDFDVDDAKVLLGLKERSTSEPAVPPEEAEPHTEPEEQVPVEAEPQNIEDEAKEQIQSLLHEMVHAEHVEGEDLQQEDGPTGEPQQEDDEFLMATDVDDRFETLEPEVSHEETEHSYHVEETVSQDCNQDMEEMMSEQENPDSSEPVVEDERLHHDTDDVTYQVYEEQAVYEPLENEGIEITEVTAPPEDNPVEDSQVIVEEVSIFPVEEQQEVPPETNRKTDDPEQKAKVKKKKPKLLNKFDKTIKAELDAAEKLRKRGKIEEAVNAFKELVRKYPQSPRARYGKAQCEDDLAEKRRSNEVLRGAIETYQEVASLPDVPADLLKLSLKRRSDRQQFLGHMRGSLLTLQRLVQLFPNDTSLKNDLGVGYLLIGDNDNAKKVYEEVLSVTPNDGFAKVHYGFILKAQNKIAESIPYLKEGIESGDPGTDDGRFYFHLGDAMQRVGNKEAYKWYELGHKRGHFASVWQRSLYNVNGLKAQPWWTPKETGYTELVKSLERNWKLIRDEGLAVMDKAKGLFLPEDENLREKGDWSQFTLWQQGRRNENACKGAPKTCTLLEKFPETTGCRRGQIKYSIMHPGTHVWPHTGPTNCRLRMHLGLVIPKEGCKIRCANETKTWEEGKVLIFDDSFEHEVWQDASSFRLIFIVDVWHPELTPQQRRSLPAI
UniProt O75947: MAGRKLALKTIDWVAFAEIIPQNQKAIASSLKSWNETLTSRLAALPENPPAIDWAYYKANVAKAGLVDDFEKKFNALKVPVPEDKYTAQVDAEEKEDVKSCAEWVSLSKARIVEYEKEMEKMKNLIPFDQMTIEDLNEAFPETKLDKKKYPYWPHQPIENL
UniProt P21283, whole entry, looked up: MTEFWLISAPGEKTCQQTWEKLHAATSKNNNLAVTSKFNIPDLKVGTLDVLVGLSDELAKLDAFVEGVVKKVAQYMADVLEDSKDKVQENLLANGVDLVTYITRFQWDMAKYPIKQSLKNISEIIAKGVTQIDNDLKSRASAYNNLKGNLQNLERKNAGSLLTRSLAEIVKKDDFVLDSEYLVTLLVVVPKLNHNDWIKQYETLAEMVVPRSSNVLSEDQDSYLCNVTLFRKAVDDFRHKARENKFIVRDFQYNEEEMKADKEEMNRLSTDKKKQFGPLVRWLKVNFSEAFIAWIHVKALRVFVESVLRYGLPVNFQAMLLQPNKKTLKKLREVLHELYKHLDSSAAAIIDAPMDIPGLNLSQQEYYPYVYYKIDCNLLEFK
UniProt O95352: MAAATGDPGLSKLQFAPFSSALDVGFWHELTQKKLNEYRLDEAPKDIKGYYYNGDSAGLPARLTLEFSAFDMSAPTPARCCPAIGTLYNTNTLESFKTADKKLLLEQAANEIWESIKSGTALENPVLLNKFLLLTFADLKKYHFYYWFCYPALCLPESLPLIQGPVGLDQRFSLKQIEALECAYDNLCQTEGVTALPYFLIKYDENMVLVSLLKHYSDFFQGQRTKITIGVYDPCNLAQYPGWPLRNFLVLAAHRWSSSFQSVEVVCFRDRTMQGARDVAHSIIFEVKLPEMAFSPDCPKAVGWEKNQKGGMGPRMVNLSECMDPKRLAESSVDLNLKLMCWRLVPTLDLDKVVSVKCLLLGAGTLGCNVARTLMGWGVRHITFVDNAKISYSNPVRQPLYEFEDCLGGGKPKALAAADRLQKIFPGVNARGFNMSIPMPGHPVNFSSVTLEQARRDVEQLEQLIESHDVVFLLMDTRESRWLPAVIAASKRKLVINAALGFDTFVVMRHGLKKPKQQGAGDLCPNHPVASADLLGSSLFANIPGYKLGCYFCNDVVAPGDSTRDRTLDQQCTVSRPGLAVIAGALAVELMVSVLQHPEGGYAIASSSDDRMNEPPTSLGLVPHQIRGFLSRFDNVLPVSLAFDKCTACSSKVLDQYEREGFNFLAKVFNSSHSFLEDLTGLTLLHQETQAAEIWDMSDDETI
UniProt Q9UBL3, whole entry, looked up: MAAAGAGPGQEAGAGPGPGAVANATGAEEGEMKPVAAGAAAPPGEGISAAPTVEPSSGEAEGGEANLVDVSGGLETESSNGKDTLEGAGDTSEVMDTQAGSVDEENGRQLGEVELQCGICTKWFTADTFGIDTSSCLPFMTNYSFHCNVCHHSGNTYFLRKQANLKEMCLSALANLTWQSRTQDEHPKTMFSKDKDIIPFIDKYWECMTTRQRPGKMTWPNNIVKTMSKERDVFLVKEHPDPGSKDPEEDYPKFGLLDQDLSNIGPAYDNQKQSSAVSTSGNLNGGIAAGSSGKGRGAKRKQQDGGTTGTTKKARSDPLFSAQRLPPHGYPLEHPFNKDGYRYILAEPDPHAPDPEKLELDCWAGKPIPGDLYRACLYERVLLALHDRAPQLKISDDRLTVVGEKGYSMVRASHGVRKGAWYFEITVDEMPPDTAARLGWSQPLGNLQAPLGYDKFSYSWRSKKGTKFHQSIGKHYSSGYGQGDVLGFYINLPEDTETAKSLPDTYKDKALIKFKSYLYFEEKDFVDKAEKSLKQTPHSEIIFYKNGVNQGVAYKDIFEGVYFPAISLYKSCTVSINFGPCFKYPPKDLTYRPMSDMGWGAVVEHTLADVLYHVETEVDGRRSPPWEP

What was measured:
Test in all cases: log2 fold change, soluble protein after heating vs DMSO (PISA); higher = thermal stabilisation; K562 lysate, 10 uM; active = over 0.2 and 3.5 SD of the protein, either way, in both replicates (recomputed)
[1] = compound: C1=CC=C(C=C1)[C@H](COC2=CC3=C(C=C2)NC(=O)N3)NC(=O)C4=CC=CN(C4=O)CC5=CC(=C(C=C5)F)F
Outline: (§1)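 Thermal stability, expressed as log-two fold change relative to solvent controls, is given from duplicates. Crude K562 extract in PBS pH 7.4 with 1 mM MgCl2, at 1 mg/mL protein, was treated with 10 μM compound for 30 min and heated in aliquots for 3 min across 48°C-58°C. After pooling, adjustment to 0.5% NP-40 at 4°C and centrifugation at 21,000xg for 90 min, supernatant protein was measured by TMTpro 16plex LC-MS/MS with channel sums equalised.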

[2] = compound: CC1=C(SC2=C1C(=N[C@H](C3=NN=C(N32)C)CC(=O)N)C4=CC=C(C=C4)Cl)C
Outline: as §1

[3] = compound: CC1=C2C(=CC=C1)N=C(N(C2=O)C3=CC=CC=C3C)CN4C=NC5=C(N=CN=C54)N
Outline: as §1

[4] = compound: Cc1sc2c(c1C)C(c1ccc(Cl)cc1)=N[C@@H](CC(=O)OC(C)(C)C)c1nnc(C)n1-2
Outline: as §1

[5] = compound: c1ccc([C@@H]2C[C@H]2NC2CCNCC2)cc1
Outline: as §1

Measured: log2 fold change

ATP11C (UniProt Q8NB49)
inactive: [1] 0.033 | [2] -0.006 | [3] -0.005 | [4] -0.013 | [5] 0.003

AZI2 (UniProt Q9H6S1)
inactive: [1] 0.008 | [2] -0.196 | [3] 0 | [4] 0.035 | [5] 0.019

ATL3 (UniProt Q6DD88)
inactive: [1] 0 | [2] -0.021 | [3] 0.028 | [4] -0.021 | [5] 0.049

ATRX (UniProt P46100)
inactive: [1] -0.035 | [2] -0.093 | [3] 0.164 | [4] -0.057 | [5] -0.036

ATF7IP isoform 4 (UniProt Q6VMQ6)
inactive: [1] 0.051 | [2] 0.007 | [3] 0.029 | [4] 0.017 | [5] 0

ATP6V1D (UniProt Q9Y5K8)
inactive: [1] 0.044 | [2] 0.016 | [3] -0.005 | [4] 0.02 | [5] 0.021

ATAD3A (UniProt Q9NVI7)
inactive: [1] 0.155 | [2] 0.083 | [3] 0.026 | [4] 0 | [5] 0.209

ATP11A (UniProt P98196)
inactive: [1] 0.04 | [2] -0.014 | [3] -0.004 | [4] 0.005 | [5] -0.026

ATP6V1A (UniProt P38606)
inactive: [1] 0.002 | [2] 0.009 | [3] -0.002 | [4] -0.01 | [5] 0.024

ASDURF (UniProt L0R819)
inactive: [1] -0.013 | [2] 0.076 | [3] 0.007 | [4] -0.061 | [5] -0.014

ATPAF2 (UniProt Q8N5M1)
inactive: [1] 0.118 | [2] 0.018 | [3] 0.026 | [4] -0.073 | [5] -0.044

ATP6V1G1 (UniProt O75348)
inactive: [1] 0.009 | [2] 0.013 | [3] 0.003 | [4] -0.029 | [5] -0.009

ATP7B (UniProt P35670)
inactive: [1] -0.012 | [2] -0.003 | [3] 0.098 | [4] -0.06 | [5] -0.02

ATF2 (UniProt P15336)
inactive: [1] 0.088 | [2] -0.044 | [3] -0.034 | [4] 0.01 | [5] 0.055

ATP6V1H (UniProt Q9UI12)
inactive: [1] 0.015 | [2] 0.004 | [3] 0.003 | [4] 0.027 | [5] 0.007

ASPH (UniProt Q12797)
inactive: [1] 0.006 | [2] 0.028 | [3] 0 | [4] -0.045 | [5] 0.026

ATP13A3 (UniProt Q9H7F0)
inactive: [1] 0.003 | [2] 0.054 | [3] 0.043 | [4] -0.03 | [5] -0.03

ATP5PD (UniProt O75947)
inactive: [1] -0.011 | [2] -0.056 | [3] -0.007 | [4] 0.013 | [5] 0.023

ATP6V1C1 (UniProt P21283)
inactive: [1] -0.015 | [2] -0.035 | [3] -0.01 | [4] 0.032 | [5] 0.012

ATG7 (UniProt O95352)
inactive: [1] 0.014 | [2] 0.003 | [3] 0.028 | [4] -0.014 | [5] 0.044

ATXN2L isoform 3 (UniProt Q8WWM7)
inactive: [1] 0.032 | [2] 0.007 | [3] -0.019 | [4] -0.053 | [5] 0.006

ATP1A3 isoform 3 (UniProt P13637)
inactive: [1] 0.015 | [2] 0.015 | [3] 0.032 | [4] -0.034 | [5] -0.086

AUP1 (UniProt Q9Y679)
inactive: [1] -0.007 | [2] -0.005 | [3] -0.022 | [4] -0.016 | [5] 0.032

ASH2L (UniProt Q9UBL3)
inactive: [1] 0.009 | [2] 0.002 | [3] 0.016 | [4] 0.039 | [5] 0.04
